{"source": "PubChem BioAssay AID1259254 (NCATS, 2017)", "test": "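Gene knock-downs that lead to re-replication, shown by excess G2 DNA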 (primary screen)", "cell system": "human HCT116 colorectal cancer cells", "reagent": "single siRNA against human genes", "timing": "3 days", "measurement": "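Nuclei stained with Hoechst and imaged; cell-cycle phase assigned by DNA content; G2 share scaled per plate, non-targeting siRNA 0%, GMNN siRNA 100%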", "direction": "G2 robust z-score and G2 cells, % of GMNN control: higher = more G2 cells, more excess DNA replication", "call rule": "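An siRNA counts as active if its G2 robust z-score lies at least 5 MADs above the screen median; here such calls match roughly 38% of GMNN control or more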", "note": "Here is an unselected part of about 59,000 deposited reagents. Over the whole deposit, about 1,550 (2.6%) got an active call. 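G2 share is only a proxy for re-replication; each gene was hit by three separate siRNAs, and active genes were retested.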 Unmarked entries are inactive. Reagents against one gene are numbered here. Not all columns of the deposit are shown. Reagent sequences are not shown. Not given: the amount of reagent."}
{"target gene": "LOC730110", "siRNA no.": 1, "G2 robust z-score": 2.32, "G2 cells, % of GMNN control": 19.3}
{"target gene": "LOC730110", "siRNA no.": 2, "G2 robust z-score": 1.02, "G2 cells, % of GMNN control": 10.2}
{"target gene": "LOC730110", "siRNA no.": 3, "G2 robust z-score": -0.333, "G2 cells, % of GMNN control": 0.624}
{"target gene": "TM2D2", "siRNA no.": 1, "G2 robust z-score": 2.07, "G2 cells, % of GMNN control": 17.6}
{"target gene": "TM2D2", "siRNA no.": 2, "G2 robust z-score": -0.938, "G2 cells, % of GMNN control": -3.63}
{"target gene": "TM2D2", "siRNA no.": 3, "G2 robust z-score": -0.369, "G2 cells, % of GMNN control": 0.374}
{"target gene": "PGR", "siRNA no.": 1, "G2 robust z-score": -1.16, "G2 cells, % of GMNN control": -5.21}
{"target gene": "PGR", "siRNA no.": 2, "G2 robust z-score": 0.567, "G2 cells, % of GMNN control": 6.96}
{"target gene": "PGR", "siRNA no.": 3, "G2 robust z-score": 1.23, "G2 cells, % of GMNN control": 11.6}
{"target gene": "TSPAN33", "siRNA no.": 1, "G2 robust z-score": -0.717, "G2 cells, % of GMNN control": -2.08}
{"target gene": "TSPAN33", "siRNA no.": 2, "G2 robust z-score": 1.35, "G2 cells, % of GMNN control": 12.5}
{"target gene": "TSPAN33", "siRNA no.": 3, "G2 robust z-score": 2.05, "G2 cells, % of GMNN control": 17.4}

3 entries already listed, ordered by “G2 robust z-score”, high to low:
{"target gene": "TM2D2", "siRNA no.": 1, "G2 robust z-score": 2.07, "G2 cells, % of GMNN control": 17.6}
{"target gene": "TM2D2", "siRNA no.": 3, "G2 robust z-score": -0.369, "G2 cells, % of GMNN control": 0.374}
{"target gene": "TM2D2", "siRNA no.": 2, "G2 robust z-score": -0.938, "G2 cells, % of GMNN control": -3.63}

The listing continues:
{"target gene": "CCNC", "siRNA no.": 1, "G2 robust z-score": 2.07, "G2 cells, % of GMNN control": 17.5}
{"target gene": "CCNC", "siRNA no.": 2, "G2 robust z-score": -1.04, "G2 cells, % of GMNN control": -4.36}
{"target gene": "CCNC", "siRNA no.": 3, "G2 robust z-score": -1.62, "G2 cells, % of GMNN control": -8.42}
{"target gene": "PTCD1", "siRNA no.": 1, "G2 robust z-score": 0.829, "G2 cells, % of GMNN control": 8.8}
{"target gene": "PTCD1", "siRNA no.": 2, "G2 robust z-score": 2.98, "G2 cells, % of GMNN control": 23.9}
{"target gene": "PTCD1", "siRNA no.": 3, "G2 robust z-score": 0.991, "G2 cells, % of GMNN control": 9.94}
{"target gene": "CROT", "siRNA no.": 1, "G2 robust z-score": -1.39, "G2 cells, % of GMNN control": -6.83}
{"target gene": "CROT", "siRNA no.": 2, "G2 robust z-score": -0.889, "G2 cells, % of GMNN control": -3.29}
{"target gene": "CROT", "siRNA no.": 3, "G2 robust z-score": -1.15, "G2 cells, % of GMNN control": -5.13}
{"target gene": "OR52N2", "siRNA no.": 1, "G2 robust z-score": 0.303, "G2 cells, % of GMNN control": 5.1}
{"target gene": "OR52N2", "siRNA no.": 2, "G2 robust z-score": 0.601, "G2 cells, % of GMNN control": 7.2}
{"target gene": "OR52N2", "siRNA no.": 3, "G2 robust z-score": 1, "G2 cells, % of GMNN control": 10}
